Test [1] concerns the target T1, cystin (full-length mouse cystin, yeast two-hybrid fusion) (mouse) (UniProt Q8R4T1).
T1 sequence: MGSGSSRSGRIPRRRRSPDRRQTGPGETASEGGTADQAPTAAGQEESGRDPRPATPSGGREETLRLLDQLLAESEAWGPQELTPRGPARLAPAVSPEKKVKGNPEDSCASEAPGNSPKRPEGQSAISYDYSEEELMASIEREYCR
The experiment in a line: two-hybrid; GAL4 system (… System 3, Clontech); cystin as bait in pGBKT7, necdin as prey in pACT2; growth on SD/-Ade-His-Leu-Trp/X-gal.

For test [2], the target named is T2, HA-cystin (full-length cystin in pCMV-HA) (mouse) (UniProt Q8R4T1).
T2 sequence: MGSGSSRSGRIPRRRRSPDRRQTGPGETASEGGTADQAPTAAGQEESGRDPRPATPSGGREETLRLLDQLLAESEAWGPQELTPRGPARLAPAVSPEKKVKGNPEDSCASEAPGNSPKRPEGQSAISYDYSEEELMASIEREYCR
The experiment in a line: co-IP; pCMV-HA-cystin and pCMV-myc-necdin co-transfected into COS-7 cells; lysate precipitated with HA antibody and protein G agarose at 4 °C; washed with lysis buffer plus 0.2% NP40; blot with myc antibody.

The target of test [3] is T3, GST-cystin (full-length cystin in pCMV-GST) (mouse) (UniProt Q8R4T1).
T3 sequence: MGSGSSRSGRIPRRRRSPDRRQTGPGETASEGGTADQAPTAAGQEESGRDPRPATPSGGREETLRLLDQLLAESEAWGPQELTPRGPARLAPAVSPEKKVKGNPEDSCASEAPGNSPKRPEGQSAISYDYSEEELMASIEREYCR
The experiment in a line: pull-down; pCMV-GST-cystin (or GST alone) and pCMV-myc-necdin co-transfected into COS-7 cells; lysate incubated with immobilized glutathione beads overnight at 4 °C; eluted with 100 mM glutathione; blot with myc antibody.

For test [4], the target named is T4, necdin (full-length, yeast two-hybrid fusion) (mouse) (UniProt P25233).
T4 sequence: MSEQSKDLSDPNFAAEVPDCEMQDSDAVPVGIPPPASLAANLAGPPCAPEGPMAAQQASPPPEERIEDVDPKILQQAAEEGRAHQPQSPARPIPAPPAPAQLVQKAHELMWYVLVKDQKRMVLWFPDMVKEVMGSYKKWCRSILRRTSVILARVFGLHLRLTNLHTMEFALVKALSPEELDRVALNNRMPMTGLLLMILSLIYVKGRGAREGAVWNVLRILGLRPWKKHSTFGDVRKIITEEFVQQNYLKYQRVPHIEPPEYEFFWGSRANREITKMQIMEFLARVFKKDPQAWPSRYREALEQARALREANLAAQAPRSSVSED
The experiment in a line: two-hybrid; vector switch: necdin as bait in pGBKT7, cystin as prey in pGADT7; growth on SD/-Ade-His-Leu-Trp with 0, 2.5, 5, 7.5, 10 and 15 mM 3-AT.

No constants are given. Whether binding was seen depends on the method and setting. For some of these results: In cells and extracts the contact can be indirect. Some results given as binding are weak or reduced against the parent protein; the word gives no strength. Where a sequence is shown, tags or fusion partners need not be part of it.

B1: necdin (full-length, yeast two-hybrid fusion) (protein, UniProt P25233 1-325)
chain: MSEQSKDLSDPNFAAEVPDCEMQDSDAVPVGIPPPASLAANLAGPPCAPEGPMAAQQASPPPEERIEDVDPKILQQAAEEGRAHQPQSPARPIPAPPAPAQLVQKAHELMWYVLVKDQKRMVLWFPDMVKEVMGSYKKWCRSILRRTSVILARVFGLHLRLTNLHTMEFALVKALSPEELDRVALNNRMPMTGLLLMILSLIYVKGRGAREGAVWNVLRILGLRPWKKHSTFGDVRKIITEEFVQQNYLKYQRVPHIEPPEYEFFWGSRANREITKMQIMEFLARVFKKDPQAWPSRYREALEQARALREANLAAQAPRSSVSED
For the molecule B1, in test [1], the binding entry is recorded as “binds”.

B2: myc-necdin (full-length necdin in pCMV-myc) (protein, UniProt P25233 1-325)
chain: MSEQSKDLSDPNFAAEVPDCEMQDSDAVPVGIPPPASLAANLAGPPCAPEGPMAAQQASPPPEERIEDVDPKILQQAAEEGRAHQPQSPARPIPAPPAPAQLVQKAHELMWYVLVKDQKRMVLWFPDMVKEVMGSYKKWCRSILRRTSVILARVFGLHLRLTNLHTMEFALVKALSPEELDRVALNNRMPMTGLLLMILSLIYVKGRGAREGAVWNVLRILGLRPWKKHSTFGDVRKIITEEFVQQNYLKYQRVPHIEPPEYEFFWGSRANREITKMQIMEFLARVFKKDPQAWPSRYREALEQARALREANLAAQAPRSSVSED
Take B2: the binding entry in test [2] and in test [3] was “binds” in each case.

B3: cystin (full-length mouse cystin, yeast two-hybrid fusion) (protein, UniProt Q8R4T1 1-145)
chain: MGSGSSRSGRIPRRRRSPDRRQTGPGETASEGGTADQAPTAAGQEESGRDPRPATPSGGREETLRLLDQLLAESEAWGPQELTPRGPARLAPAVSPEKKVKGNPEDSCASEAPGNSPKRPEGQSAISYDYSEEELMASIEREYCR
Take B3: the binding entry in test [4] is reported as “binds”.

The values above are taken from PMC3859662.
